Taken from: PubChem BioAssay AID504793 (Drosophila RNAi Screening Center, 2011)
The deposit covers about 23,000 reagents; below is a random part of those that have a named target and a result. In the full data, 62 (0.27%) are marked active. 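Calls come from follow-up tests whose scores are not deposited, so confirmed genes may have low counts here; counts are not normalised per plate.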 Raw values vary from plate to plate and are shown uncorrected. A plus sign joins genes that one reagent is predicted to hit.

Screen: 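Whole-genome screen for parts of the DNA damage checkpoint at G2/M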 (primary screen)
System: Drosophila S2R+ cells
Reagents: long dsRNA against Drosophila genes, about 0.25 µg dsRNA per well
Duration: 4 days of dsRNA, then 4 hours of drug before read-out
Treatment: doxorubicin 0.5 µM for 4 hours to cause double-strand breaks, in cells also given a low, harmless dose of dsRNA against nbs to sensitise the assay
Detection: 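Per-well count of mitotic cells stained for phospho-histone H3 after doxorubicin exposure, used as mitotic index; counts are raw and not normalised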
Reading the numbers: mitotic cells: higher = more cells in mitosis, weaker G2 arrest
Rule for the call: 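Genes are called active only when high mitotic counts were reproduced with independent dsRNAs and mitosis was checked for delay without damage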
Calls: active = confirmed in follow-up tests; inactive = not confirmed

target gene	amplicon	mitotic cells, replicate 1	mitotic cells, replicate 2	activity call
CG3792	DRSC02725	2		inactive
CG33468	DRSC22940	7		inactive
CG15715	DRSC10216	10		inactive
CG15715	DRSC25332	10		inactive
Dna2	DRSC18254	12		inactive
Cda5	DRSC00529	2		inactive
Cda5	DRSC00532	4		inactive
Cda5	DRSC21330	11		inactive
Pcd	DRSC16785	14		inactive
Boot	DRSC06412	5		inactive
CG13002	DRSC19521	12		inactive
CG13002	DRSC29478	4		inactive
Setd3	DRSC17840	10		inactive
Setd3	DRSC18269	10		inactive
l(1)G0289	DRSC18215	8		inactive
l(1)G0289	DRSC29200			inactive
PGRP-LF	DRSC28930	6		inactive
Eb1	DRSC05016	6		inactive
Graf	DRSC20131	6		inactive
IP3K1 + hpRNA:CR18854	DRSC23313	8		inactive
CG14442	DRSC25040	3		inactive
RpS20	DRSC16836	9		inactive
Sec63	DRSC11002	4	11	inactive
SCaMC	DRSC10293	10		inactive
SCaMC	DRSC10415	7		inactive
SCaMC	DRSC28518	4		inactive
CG15449	DRSC20521	6		inactive
pros	DRSC12856	12		inactive
pros	DRSC17032	9		inactive
pros	DRSC27593	8		inactive
RpL7A	DRSC18709	14		inactive
RpL7A	DRSC28833	3		inactive
eIF3k	DRSC04056	3		inactive
eIF3k	DRSC27734	4		inactive
ND-MLRQ	DRSC11913	5		inactive
TkR86C	DRSC16880	3		inactive
PPO2	DRSC07102	5		inactive
NO66	DRSC18252	4		inactive
CG2750	DRSC19867	5	8	inactive
CG16984	DRSC08500	5		inactive
CG16984	DRSC28605	6		inactive
CG13847	DRSC23172	1		inactive
Ccp84Ad	DRSC12589	8		inactive
Ccp84Ad	DRSC22854	10		inactive
Acp76A	DRSC09665	12		inactive
Acp76A	DRSC24824	9		inactive
Hsp70Bc	DRSC16053	3		inactive
PCNA2	DRSC02030	4		inactive
CG11619	DRSC09849	5		inactive
CG11634	DRSC03700	1		inactive
retinin	DRSC09940			inactive
retinin	DRSC25734	9		inactive
CG2126	DRSC15418	6		inactive
CG14650	DRSC12236	11		inactive
CG14650	DRSC23822	4		inactive
CG12091	DRSC08251	9		inactive
CG12091	DRSC24873	8		inactive
ari-2	DRSC04672	7		inactive
ari-2	DRSC27896	9		inactive
CG14036	DRSC02361	4		inactive
CG17549	DRSC02625	6		inactive
CG14778	DRSC17953	8		inactive
CAH13	DRSC06128	5		inactive
CAH13	DRSC24093	8		inactive
SmydA-4	DRSC19390	11		inactive
SmydA-4	DRSC21866	9		inactive
SmydA-4	DRSC26517	3		inactive
mRpL2	DRSC10896	6		inactive
flr	DRSC09787	6		inactive
CG15096	DRSC06525	7		inactive
CG15096	DRSC29737	16		inactive
spz5	DRSC08645	9		inactive
Mur18B	DRSC20063	4		inactive
Mur18B	DRSC28610	3		inactive
Vang	DRSC07570	2		inactive

In a second layout: 3 of the entries above
{"target gene":"CG13002","amplicon":"DRSC19521","mitotic cells, replicate 1":12,"activity call":"inactive"}
{"target gene":"CG13002","amplicon":"DRSC29478","mitotic cells, replicate 1":4,"activity call":"inactive"}
{"target gene":"Setd3","amplicon":"DRSC17840","mitotic cells, replicate 1":10,"activity call":"inactive"}
